Data as given in PubChem BioAssay AID1671195 (Yale University, 2021).

Purpose: 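Regulators of LDL receptor activity judged by labelled LDL uptake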 (primary screen)
System: human Huh7 hepatoma cells
Knock-down reagent: siRNA pool against human genes, 18 nM
Duration: about 2 to 2.5 days of knockdown, then 8 h LDL uptake
Conditions: DiI-labelled LDL at 30 µg/ml for 8 h, in lipoprotein-deficient serum medium
Detection: 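Fluorescent LDL signal imaged in cells, scaled to the plate median, robust z-score for each replicate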
Reading the numbers: robust z-score: higher = more LDL uptake after knockdown
Rule for the call: 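a gene counts as active if at least two replicate z-scores exceed ±2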
Here is a random part of about 22,000 reagents tested. About 1,510 of them (6.9%) count as active. 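Active includes knockdowns raising or lowering LDL uptake; positive z-scores mean more uptake, negative mean less.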

LRRC26 (leucine rich repeat containing 26) → robust z-score, replicate 1: -1.07; robust z-score, replicate 2: -1.23; robust z-score, replicate 3: -0.826; Outcome: inactive
RMND5A (required for meiotic nuclear division 5 homolog A) → robust z-score, replicate 1: 1.15; robust z-score, replicate 2: 1.29; robust z-score, replicate 3: 0.85; Outcome: inactive
RPRML (reprimo like) → robust z-score, replicate 1: 0.724; robust z-score, replicate 2: 1.08; robust z-score, replicate 3: 0.61; Outcome: inactive
B4GALNT1 (beta-1,4-N-acetyl-galactosaminyltransferase 1) → robust z-score, replicate 1: -1.52; robust z-score, replicate 2: -2.63; robust z-score, replicate 3: -0.702; Outcome: inactive
LOC729704 → robust z-score, replicate 1: -0.457; robust z-score, replicate 2: -1.33; robust z-score, replicate 3: -0.664; Outcome: inactive
SLC17A8 → robust z-score, replicate 1: 1.34; robust z-score, replicate 2: 1.99; robust z-score, replicate 3: 1.49; Outcome: inactive
B4GALT5 (beta-1,4-galactosyltransferase 5) → robust z-score, replicate 1: -0.391; robust z-score, replicate 2: -0.13; robust z-score, replicate 3: -0.111; Outcome: inactive
SPECC1 → robust z-score, replicate 1: -0.118; robust z-score, replicate 2: -1.86; robust z-score, replicate 3: -1.24; Outcome: inactive
ROR2 (ROR family WNT receptor 2) → robust z-score, replicate 1: 0.832; robust z-score, replicate 2: 0.778; robust z-score, replicate 3: 0.565; Outcome: inactive
NEK5 (NIMA related kinase 5) → robust z-score, replicate 1: 1.22; robust z-score, replicate 2: 0.592; robust z-score, replicate 3: 0.536; Outcome: inactive
TMEM100 (transmembrane protein 100) → robust z-score, replicate 1: 1.15; robust z-score, replicate 2: 1.38; robust z-score, replicate 3: 1.34; Outcome: inactive
RPL41 (ribosomal protein L41) → robust z-score, replicate 1: 1.25; robust z-score, replicate 2: 1.52; robust z-score, replicate 3: 1.46; Outcome: inactive
LOC440928 (retired record) → robust z-score, replicate 1: 0.393; robust z-score, replicate 2: -0.203; robust z-score, replicate 3: 0.147; Outcome: inactive
OR52E6 (olfactory receptor family 52 subfamily E member 6) → robust z-score, replicate 1: 0.587; robust z-score, replicate 2: 1.01; robust z-score, replicate 3: 1.11; Outcome: inactive
FKBP9 (FKBP prolyl isomerase 9) → robust z-score, replicate 1: -0.415; robust z-score, replicate 2: 0.011; robust z-score, replicate 3: -0.384; Outcome: inactive
IQCM (IQ motif containing M) → robust z-score, replicate 1: -0.949; robust z-score, replicate 2: -0.631; robust z-score, replicate 3: -0.726; Outcome: inactive
ATOH8 (atonal bHLH transcription factor 8) → robust z-score, replicate 1: -0.168; robust z-score, replicate 2: 0.501; robust z-score, replicate 3: 0.102; Outcome: inactive
GNAT3 (G protein subunit alpha transducin 3) → robust z-score, replicate 1: 0.476; robust z-score, replicate 2: 2.16; robust z-score, replicate 3: 0.753; Outcome: inactive
WFDC8 (WAP four-disulfide core domain 8) → robust z-score, replicate 1: -1.09; robust z-score, replicate 2: -1.42; robust z-score, replicate 3: -1.49; Outcome: inactive
DHX33 (DEAH-box helicase 33) → robust z-score, replicate 1: -0.183; robust z-score, replicate 2: -0.349; robust z-score, replicate 3: 0.672; Outcome: inactive
DEFB108B (defensin beta 108B) → robust z-score, replicate 1: 1.81; robust z-score, replicate 2: 1.56; robust z-score, replicate 3: 1.7; Outcome: inactive
PWWP2B (PWWP domain containing 2B) → robust z-score, replicate 1: 0.278; robust z-score, replicate 2: 0.605; robust z-score, replicate 3: 0.853; Outcome: inactive
ANKS1B (ankyrin repeat and sterile alpha motif domain containing 1B) → robust z-score, replicate 1: -0.721; robust z-score, replicate 2: 0.851; robust z-score, replicate 3: -1.1; Outcome: inactive
NAT8 (N-acetyltransferase 8 (putative)) → robust z-score, replicate 1: -1.17; robust z-score, replicate 2: -1.52; robust z-score, replicate 3: -1.64; Outcome: inactive
ZNF263 (zinc finger protein 263) → robust z-score, replicate 1: 1.07; robust z-score, replicate 2: 1.25; robust z-score, replicate 3: 2.04; Outcome: inactive
KIF20B (kinesin family member 20B) → robust z-score, replicate 1: -0.853; robust z-score, replicate 2: 0.81; robust z-score, replicate 3: 0.383; Outcome: inactive
GANC (glucosidase alpha, neutral C) → robust z-score, replicate 1: -0.734; robust z-score, replicate 2: -1.36; robust z-score, replicate 3: -1.26; Outcome: inactive
LOC441329 (retired record) → robust z-score, replicate 1: -1.11; robust z-score, replicate 2: -1.92; robust z-score, replicate 3: -1.66; Outcome: inactive
ADAMTS3 (ADAM metallopeptidase with thrombospondin type 1 motif 3) → robust z-score, replicate 1: -0.257; robust z-score, replicate 2: -0.106; robust z-score, replicate 3: -0.207; Outcome: inactive
SLC28A3 → robust z-score, replicate 1: -0.651; robust z-score, replicate 2: -0.941; robust z-score, replicate 3: -0.33; Outcome: inactive
